Measured values from paper PMC10353998 (2023).

Amino acid sequences for entries named in this document (tags omitted).
UniProt Q14671: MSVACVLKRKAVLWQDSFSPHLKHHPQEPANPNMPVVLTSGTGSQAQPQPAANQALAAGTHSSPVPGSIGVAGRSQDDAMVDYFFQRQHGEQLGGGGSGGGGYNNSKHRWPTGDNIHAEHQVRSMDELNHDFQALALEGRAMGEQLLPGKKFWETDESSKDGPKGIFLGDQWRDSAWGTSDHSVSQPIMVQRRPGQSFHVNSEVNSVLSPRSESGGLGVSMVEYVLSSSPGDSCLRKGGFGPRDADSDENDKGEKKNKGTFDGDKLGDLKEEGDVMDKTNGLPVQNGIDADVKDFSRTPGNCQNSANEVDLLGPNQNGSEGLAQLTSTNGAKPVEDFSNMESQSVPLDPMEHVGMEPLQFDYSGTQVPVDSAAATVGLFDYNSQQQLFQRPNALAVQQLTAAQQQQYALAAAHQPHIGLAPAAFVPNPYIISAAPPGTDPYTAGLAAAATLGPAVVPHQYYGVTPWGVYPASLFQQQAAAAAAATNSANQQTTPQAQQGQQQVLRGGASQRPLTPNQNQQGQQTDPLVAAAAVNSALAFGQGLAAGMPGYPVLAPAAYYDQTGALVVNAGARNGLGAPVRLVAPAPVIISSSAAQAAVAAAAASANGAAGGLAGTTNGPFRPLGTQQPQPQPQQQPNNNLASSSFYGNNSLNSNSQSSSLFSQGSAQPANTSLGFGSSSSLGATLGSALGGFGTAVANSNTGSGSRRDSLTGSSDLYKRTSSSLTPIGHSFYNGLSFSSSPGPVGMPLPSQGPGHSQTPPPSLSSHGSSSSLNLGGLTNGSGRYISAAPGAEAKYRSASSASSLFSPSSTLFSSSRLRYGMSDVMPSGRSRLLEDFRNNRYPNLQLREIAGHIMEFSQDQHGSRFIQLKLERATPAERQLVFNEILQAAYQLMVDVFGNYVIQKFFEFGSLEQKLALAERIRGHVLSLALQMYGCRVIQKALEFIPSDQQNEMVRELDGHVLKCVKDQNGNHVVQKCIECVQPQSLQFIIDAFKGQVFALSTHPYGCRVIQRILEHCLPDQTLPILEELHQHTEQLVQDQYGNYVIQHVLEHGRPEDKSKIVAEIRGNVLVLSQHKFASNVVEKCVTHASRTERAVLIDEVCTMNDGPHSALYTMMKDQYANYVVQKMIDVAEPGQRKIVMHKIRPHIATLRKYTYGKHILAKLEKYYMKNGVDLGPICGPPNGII

Legend:
[1] = biological target: T1, eGFP-GGSG-Flag-RBM20-R634Q (human) (UniProt Q5T481); experiment: affinity purification with mass spectrometry; GFP-Trap magnetic particles, 1 mg of cytoplasmic fraction of HeLa expressing eGFP-RBM20 (WT, P633L, R634Q, RSS), 4 °C 3 h; washes with 150 mM NaCl, 0.1% NP-40; TMT LC-MS/MS; hits against a no-bait control
T1 sequence: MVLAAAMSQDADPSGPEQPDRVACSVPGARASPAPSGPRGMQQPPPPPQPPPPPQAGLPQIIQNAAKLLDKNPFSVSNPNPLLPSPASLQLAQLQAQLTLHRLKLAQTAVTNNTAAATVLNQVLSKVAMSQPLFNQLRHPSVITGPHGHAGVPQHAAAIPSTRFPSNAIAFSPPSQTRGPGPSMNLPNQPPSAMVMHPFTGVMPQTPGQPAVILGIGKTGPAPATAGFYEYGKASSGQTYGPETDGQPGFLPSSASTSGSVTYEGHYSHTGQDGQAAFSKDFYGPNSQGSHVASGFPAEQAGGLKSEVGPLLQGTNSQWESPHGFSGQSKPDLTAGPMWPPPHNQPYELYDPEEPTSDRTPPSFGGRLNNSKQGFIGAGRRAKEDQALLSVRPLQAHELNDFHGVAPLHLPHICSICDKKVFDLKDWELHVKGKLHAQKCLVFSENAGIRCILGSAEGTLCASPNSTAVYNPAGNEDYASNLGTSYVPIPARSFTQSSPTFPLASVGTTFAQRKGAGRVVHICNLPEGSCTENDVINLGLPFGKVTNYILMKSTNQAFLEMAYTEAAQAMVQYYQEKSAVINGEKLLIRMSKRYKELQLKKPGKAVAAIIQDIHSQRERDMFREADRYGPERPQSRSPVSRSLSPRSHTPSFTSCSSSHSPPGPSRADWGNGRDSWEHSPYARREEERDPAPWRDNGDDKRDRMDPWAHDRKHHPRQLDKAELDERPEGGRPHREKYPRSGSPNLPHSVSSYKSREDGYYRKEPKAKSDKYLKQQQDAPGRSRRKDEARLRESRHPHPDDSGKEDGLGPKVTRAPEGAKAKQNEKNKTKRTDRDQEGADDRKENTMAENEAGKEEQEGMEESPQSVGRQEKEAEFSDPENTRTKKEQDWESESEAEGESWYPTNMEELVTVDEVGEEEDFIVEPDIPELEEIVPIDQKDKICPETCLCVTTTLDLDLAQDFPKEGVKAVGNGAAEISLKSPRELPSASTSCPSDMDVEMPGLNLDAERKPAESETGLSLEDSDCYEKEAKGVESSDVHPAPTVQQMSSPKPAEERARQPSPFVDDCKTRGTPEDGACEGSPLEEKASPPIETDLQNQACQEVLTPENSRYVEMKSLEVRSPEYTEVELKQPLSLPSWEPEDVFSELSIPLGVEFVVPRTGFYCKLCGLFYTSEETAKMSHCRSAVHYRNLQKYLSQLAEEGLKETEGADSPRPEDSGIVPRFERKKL

[2] = biological target: T2, eGFP-GGSG-Flag-RBM20-P633L (human) (UniProt Q5T481); experiment: as above
T2 sequence: T1 sequence with P633L, Q634R

Substance: PUM1 (from UniProt Q14671 1-1186)
- binding [1]: binds
- binding [2]: binds

Positions count from the first letter of the chain named. Results are given in words; binding and its absence hold for the method and conditions named. In cells and extracts the contact can be indirect. These calls come from enrichment with a bait or labelling near it, and not all partners need be listed. Tags and fused reporters may be left off the sequences shown.
